Measured values from publication PMC7619497.
No constants are given. Whether binding was seen depends on the method and setting. In cells and extracts the contact can be indirect. Some results given as binding are weak or reduced against the parent protein; the word gives no strength. Where a sequence is shown, tags or fusion partners need not be part of it.

Chains of the proteins cited; added tags and fusions are not shown.
UniProt P20248: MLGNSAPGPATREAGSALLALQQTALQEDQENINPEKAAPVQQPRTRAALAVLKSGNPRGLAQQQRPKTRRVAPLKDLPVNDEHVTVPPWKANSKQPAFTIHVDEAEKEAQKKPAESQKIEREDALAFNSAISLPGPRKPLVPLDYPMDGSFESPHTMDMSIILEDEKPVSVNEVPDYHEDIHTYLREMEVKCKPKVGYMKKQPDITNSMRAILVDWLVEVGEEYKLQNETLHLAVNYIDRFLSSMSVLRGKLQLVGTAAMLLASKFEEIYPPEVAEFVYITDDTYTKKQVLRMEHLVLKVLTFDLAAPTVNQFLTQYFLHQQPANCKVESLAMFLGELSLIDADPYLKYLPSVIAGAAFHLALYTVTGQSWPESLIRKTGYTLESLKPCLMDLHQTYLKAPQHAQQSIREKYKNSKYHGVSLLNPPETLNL

Molecular target: T1, C-terminus HA-tagged WT ASCL1 (human) (UniProt P50553)
T1 sequence: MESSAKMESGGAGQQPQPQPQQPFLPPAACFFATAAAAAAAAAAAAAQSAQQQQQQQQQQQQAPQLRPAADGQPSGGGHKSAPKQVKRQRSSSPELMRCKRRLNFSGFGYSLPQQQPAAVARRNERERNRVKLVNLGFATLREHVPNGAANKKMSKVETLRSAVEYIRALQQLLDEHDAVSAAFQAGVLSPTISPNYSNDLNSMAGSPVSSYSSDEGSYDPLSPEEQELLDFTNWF
Assay: co-IP; SK-N-BE(2)C cells expressing HA-tagged ASCL1, 1 ug/mL doxycycline 24 h; lysis in ELB buffer (160 mM NaCl, 0.1% NP-40); 600 ug lysate in IP buffer (150 mM NaCl, 50 mM HEPES pH 7.5) with HA-Trap magnetic agarose beads overnight at 4 C; blot for Cyclin A2 and HA

Cyclin A2 (from UniProt P20248 1-432)
binding: binds
